Assay results as given in PMC11254670, “Soluble CD72, is a T-cell activator probably via binding to CD6 in homeostasis and autoimmunity” (Frontiers in Immunology, 2024).
No constants are given. Whether binding was seen depends on the method and setting. In cells and extracts the contact can be indirect. A yes stands for co-enrichment or nearness to the bait. Other partners may have been found. Tags and fused reporters may be left off the sequences shown.

Amino acid sequences for entries named in this document (tags omitted). Residues count along the entry.
UniProt Q08722, residues 19-323: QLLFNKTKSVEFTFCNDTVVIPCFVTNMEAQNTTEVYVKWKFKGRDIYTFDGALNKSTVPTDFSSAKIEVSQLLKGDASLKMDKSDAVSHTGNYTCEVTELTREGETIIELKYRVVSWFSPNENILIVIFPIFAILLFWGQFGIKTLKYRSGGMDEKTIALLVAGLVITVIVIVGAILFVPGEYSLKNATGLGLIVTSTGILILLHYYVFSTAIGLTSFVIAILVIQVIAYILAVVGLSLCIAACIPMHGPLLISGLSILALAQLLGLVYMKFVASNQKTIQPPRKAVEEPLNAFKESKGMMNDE
UniProt P05107, residues 23-769: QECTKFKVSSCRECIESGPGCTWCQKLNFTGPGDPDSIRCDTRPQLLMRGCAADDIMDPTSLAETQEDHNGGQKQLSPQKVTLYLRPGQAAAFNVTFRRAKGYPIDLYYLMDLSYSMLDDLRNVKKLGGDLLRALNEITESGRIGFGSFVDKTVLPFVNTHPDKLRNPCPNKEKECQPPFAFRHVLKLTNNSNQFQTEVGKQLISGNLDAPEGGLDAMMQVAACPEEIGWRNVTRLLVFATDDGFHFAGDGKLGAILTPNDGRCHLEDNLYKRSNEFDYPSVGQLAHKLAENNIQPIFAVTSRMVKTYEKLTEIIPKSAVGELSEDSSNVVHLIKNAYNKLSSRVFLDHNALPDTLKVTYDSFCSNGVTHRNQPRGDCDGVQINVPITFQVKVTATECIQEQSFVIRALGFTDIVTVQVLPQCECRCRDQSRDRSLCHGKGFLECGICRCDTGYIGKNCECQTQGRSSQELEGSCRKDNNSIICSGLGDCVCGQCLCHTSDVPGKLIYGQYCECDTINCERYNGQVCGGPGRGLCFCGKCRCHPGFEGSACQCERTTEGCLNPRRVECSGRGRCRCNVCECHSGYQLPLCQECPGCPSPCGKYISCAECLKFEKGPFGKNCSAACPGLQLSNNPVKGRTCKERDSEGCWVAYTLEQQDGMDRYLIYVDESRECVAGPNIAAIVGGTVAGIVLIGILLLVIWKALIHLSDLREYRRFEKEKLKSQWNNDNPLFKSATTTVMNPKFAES
UniProt P08575, residues 26-1306: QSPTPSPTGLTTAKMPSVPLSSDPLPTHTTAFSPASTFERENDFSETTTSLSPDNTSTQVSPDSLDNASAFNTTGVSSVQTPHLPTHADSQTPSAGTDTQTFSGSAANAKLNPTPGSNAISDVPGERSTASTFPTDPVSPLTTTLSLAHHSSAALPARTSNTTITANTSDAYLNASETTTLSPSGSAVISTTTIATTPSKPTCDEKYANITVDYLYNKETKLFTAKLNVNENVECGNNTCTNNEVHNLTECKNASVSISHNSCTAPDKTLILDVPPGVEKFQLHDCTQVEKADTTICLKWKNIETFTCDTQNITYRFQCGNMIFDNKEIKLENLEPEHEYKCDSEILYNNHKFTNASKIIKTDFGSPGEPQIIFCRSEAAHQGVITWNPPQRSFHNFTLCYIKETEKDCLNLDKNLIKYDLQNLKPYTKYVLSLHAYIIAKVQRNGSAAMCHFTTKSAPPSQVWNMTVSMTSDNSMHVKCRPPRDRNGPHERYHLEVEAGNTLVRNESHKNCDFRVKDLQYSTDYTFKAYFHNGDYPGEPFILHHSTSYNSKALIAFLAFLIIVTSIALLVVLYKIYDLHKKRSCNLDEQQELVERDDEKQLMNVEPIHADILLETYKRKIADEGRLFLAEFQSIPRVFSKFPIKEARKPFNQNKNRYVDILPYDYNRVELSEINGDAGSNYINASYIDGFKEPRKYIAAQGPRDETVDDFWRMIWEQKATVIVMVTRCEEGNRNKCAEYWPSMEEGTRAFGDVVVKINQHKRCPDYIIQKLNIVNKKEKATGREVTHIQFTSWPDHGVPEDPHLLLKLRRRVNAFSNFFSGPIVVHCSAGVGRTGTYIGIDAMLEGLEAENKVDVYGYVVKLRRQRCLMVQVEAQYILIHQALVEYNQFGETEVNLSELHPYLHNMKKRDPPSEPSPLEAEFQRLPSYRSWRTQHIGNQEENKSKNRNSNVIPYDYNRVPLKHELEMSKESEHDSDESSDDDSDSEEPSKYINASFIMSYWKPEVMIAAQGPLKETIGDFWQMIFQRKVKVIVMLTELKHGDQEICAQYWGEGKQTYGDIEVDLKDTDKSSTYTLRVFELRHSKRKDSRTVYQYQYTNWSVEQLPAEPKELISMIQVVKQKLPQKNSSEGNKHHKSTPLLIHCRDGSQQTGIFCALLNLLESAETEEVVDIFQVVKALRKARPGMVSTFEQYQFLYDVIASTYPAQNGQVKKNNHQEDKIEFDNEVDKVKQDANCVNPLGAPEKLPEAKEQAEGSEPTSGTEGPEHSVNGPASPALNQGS

B1: CD6 (receptor, UniProt P30203 18-668)
chain: HPSPAPPDQLNTSSAESELWEPGERLPVRLTNGSSSCSGTVEVRLEASWEPACGALWDSRAAEAVCRALGCGGAEAASQLAPPTPELPPPPAAGNTSVAANATLAGAPALLCSGAEWRLCEVVEHACRSDGRRARVTCAENRALRLVDGGGACAGRVEMLEHGEWGSVCDDTWDLEDAHVVCRQLGCGWAVQALPGLHFTPGRGPIHRDQVNCSGAEAYLWDCPGLPGQHYCGHKEDAGAVCSEHQSWRLTGGADRCEGQVEVHFRGVWNTVCDSEWYPSEAKVLCQSLGCGTAVERPKGLPHSLSGRMYYSCNGEELTLSNCSWRFNNSNLCSQSLAARVLCSASRSLHNLSTPEVPASVQTVTIESSVTVKIENKESRELMLLIPSIVLGILLLGSLIFIAFILLRIKGKYALPVMVNHQHLPTTIPAGSNSYQPVPITIPKEVFMLPIQVQAPPPEDSDSGSDSDYEHYDFSAQPPVALTTFYNSQRHRVTDEEVQQSRFQMPPLEEGLEELHASHIPTANPGHCITDPPSLGPQYHPRSNSESSTSSGEDYCNSPKSKLPPWNPQVFSSERSSFLEQPPNLELAGTQPAFSAGPPADDSSSTSSGEWYQNFQPPPQPPSEEQFGCPGSPSPQPDSTDNDDYDDISAA

Target: T1, soluble CD72 (extracellular part of human CD72, amino acids 117-359, V5 and 8xHis tagged) (human) (UniProt P21854)
T1 sequence: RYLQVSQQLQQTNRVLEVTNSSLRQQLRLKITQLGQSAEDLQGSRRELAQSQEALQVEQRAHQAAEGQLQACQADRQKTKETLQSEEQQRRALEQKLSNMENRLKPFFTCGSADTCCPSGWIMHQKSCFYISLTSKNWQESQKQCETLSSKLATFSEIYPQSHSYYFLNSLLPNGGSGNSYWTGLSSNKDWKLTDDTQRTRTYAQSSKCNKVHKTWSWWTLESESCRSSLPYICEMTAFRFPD
Experiment: affinity purification with mass spectrometry; activated CD4+ T cells rotated with 5 ug/ml purified sCD72-V5 for 2 h at 4°C, cross-linked with 2.5 mM BS3, lysed (1% NP-40, 0.1% DOC), anti-V5 magnetic beads, elution with V5 peptide, SDS-PAGE, LC-MSMS; compared to control; only the target purified

Row | Molecule | binding
1 | CD47 (from UniProt Q08722 19-323) (receptor) | binds
2 | ITGB2 (from UniProt P05107 23-769) | binds
3 | PTPRC (from UniProt P08575 26-1306) | binds
4 | B1 | binds
